# Measurements: article PMC12186257, “Serendipitous and Systematic Chemoproteomic Discovery of MBLAC2, HINT1, and NME1‑4 Inhibitors from Histone Deacetylase-Targeting Pharmacophores” (ACS Chemical Biology, 2025)
# System: compound-binding proteins such as HDACs, MBLAC2, ISOC1/2, ALDH2, and GATD3A
# Assay: chemoproteomic competition assay, proteome-wide target binding profile
# Parameters: species or system human
# Details: Figure 1e; combined data from this study and a previous profiling
# Description: MBLAC2 is a metalloenzyme predicted to harbor one or two Zn^2+ ions in its active site. […] In this assay, compounds of interest are incubated at increasing concentrations with a mixture of lysates of MV4–11 and SW620 cells. The compound-treated lysates are then mixed with bead-immobilized hydroxamic acid-containing compounds iA, iC, and iQ (immobilized Quisinostat), which pull down compound-binding proteins such as HDACs, MBLAC2, ISOC1/2, ALDH2, and GATD3A (Figure a) that can be identified and quantified by mass spectrometry (MS). Proteins targeted by the library compounds in a preincubation step are prevented from being pulled down by the immobilized probes, leading to a dose-dependent reduction in MS signal. Initially, 12 metal-chelating compounds were profiled at two concentrations (10 μM and 100 μM) (Figure S3).
# Chemoproteomic competition assays
# Sample preparation. For the MBLAC2 and HDAC inhibitor competition assay, the generation of affinity matrices, lysate generation, pulldown assay, and sample preparation were performed as described in detail in REF1. For the kinobeads assay, the generation of affinity matrices, lysate generation, pulldown assay, and sample preparation were performed as described in detail in REF2.
# LC-MS/MS. The different sample types were measured with different LC-MS/MS settings. MBLAC2 2-dose competition assays were measured with the Lumos1 setup, MBLAC2 9-dose competition assays were measured with the Lumos2 setup, and kinobeads assays were measured with the Eclipse setup.
# Peptides were analyzed via LC–MS/MS on a Dionex Ultimate3000 nano HPLC coupled to either one of two Orbitrap Fusion Lumos mass spectrometers, or to an Orbitrap Eclipse mass spectrometer, operated via the Thermo Scientific Xcalibur software.
# In the all setups, peptides were loaded on a trap column (100 μm × 2 cm, packed in-house with Reprosil-Gold C18 ODS-3 5 μm resin, Dr. Maisch, Ammerbuch) and washed with 5 μL/min solvent A (0.1% formic acid in HPLC grade water) for 10 min. Peptides were then separated on an analytical column (75 μm × 40 cm, packed in-house with Reprosil-Gold C18 3μm resin, Dr. Maisch, Ammerbuch) using a 50 min gradient ranging from 4 to 32% solvent B (0.1% formic acid, 5% DMSO in acetonitrile) in solvent A (0.1% formic acid, 5% DMSO in HPLC grade water) at a flow rate of 300 nL/min.
# The mass spectrometers were operated in data-dependent mode, automatically switching between MS1 and MS2 spectra. […]
# In Lumos settings, up to 12 peptide precursors were isolated in (isolation width of 1.2 Th for Lumos1 and 1.7 for Lumos2, maximum injection time of 75 ms, AGC value of 1e5 for Lumos1 and 2e5 for Lumos2), fragmented by HCD using 30% normalized collision energy (NCE) and analyzed in the Orbitrap at a resolution of 15,000 (Lumos2) or 30,000 (Lumos1). […]
row,Structure (SMILES),order of target affinity
1,O=C(NO)c1ccc(Cn2c(=O)n(CCc3ccccc3)c(=O)c3ccccc32)cc1 [Compound J22352],MBLAC2>HDAC6
2,CCCCN(Cc1ccc(C(=O)NO)cc1)C(=O)Nc1ccccc1 [Nexturastat A],MBLAC2>HDAC6>HDAC10
3,O=C(NO)c1ccc(CN2CCCc3cc(Cl)ccc32)cc1 [SW-100],MBLAC2>>HDAC6>>HDAC10
4,"CN1CCc2c(c3ccccc3n2Cc2ccc(C(=O)NO)cc2)C1 [Tubastatin A, reference compound]",HDAC10>MBLAC2>HDAC6
